Measurements reported in PubChem BioAssay AID1259254 (NCATS, 2017).
The whole screen tested about 59,000 reagents; below is an unselected part. In the full data, about 1,550 (2.6%) were called active. 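G2 share is only a proxy for re-replication; each gene was hit by three separate siRNAs, and active genes were retested.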 A number with no mark means an inactive call. Reagents against one gene are numbered here. Not all columns of the deposit are shown. Not stated in the record: the amount of reagent.

Assay: 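Gene knock-downs that lead to re-replication, shown by excess G2 DNA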 (primary screen)
System: human HCT116 colorectal cancer cells
Knock-down reagent: single siRNA against human genes
Duration: 3 days
Measurement: 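Nuclei stained with Hoechst and imaged; cell-cycle phase assigned by DNA content; G2 share scaled per plate, non-targeting siRNA 0%, GMNN siRNA 100%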
Scale: G2 robust z-score: higher = more G2 cells, more excess DNA replication
Rule for the call: 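An siRNA counts as active if its G2 robust z-score lies at least 5 MADs above the screen median; here such calls match roughly 38% of GMNN control or more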

G2 robust z-score, by gene and reagent
DR1: #1 0.722; #2 -0.906; #3 -0.461
PIKFYVE: #1 -0.555; #2 -0.653; #3 0.473
KRTAP15-1: #1 0.173; #2 -0.487; #3 -0.865
TSPAN9: #1 -0.207; #2 -0.203; #3 0.98
SULF2: #1 -0.839; #2 -1.37; #3 -1.47
RPL22P11: #1 0.929; #2 0.071; #3 -0.108
GFPT2: #1 2.66; #2 1.03; #3 -0.576
PRR14: #1 -1.05; #2 1.43; #3 1.38
OR4C11: #1 0.643; #2 1.63; #3 4.68
CAV2: #1 1.8; #2 -1.87; #3 0.398
TSPY3: #1 -0.433; #2 -0.0653; #3 1.93
ZNF709: #1 0.602; #2 0.0849; #3 -1.07
TSSK2: #1 -1.27; #2 -0.415; #3 -0.507
TSSK4: #1 0.254; #2 -0.568; #3 -0.14
DSP: #1 -0.959; #2 -0.206; #3 -0.076
AKT2: #1 -0.838; #2 -1.01; #3 0.256
C15orf62: #1 -0.16; #2 0.0989; #3 0.0797
TRIM35: #1 1.73; #2 2.5; #3 2.31
S100A4: #1 -0.622; #2 -0.7; #3 -0.0474
SLC2A10: #1 0.0143; #2 1.06; #3 6.07 (active)
FANCD2: #1 2.78; #2 5.78 (active); #3 -0.872
RUBCNL: #1 -0.549; #2 -0.427; #3 0.218
RNASE3: #1 -0.367; #2 -0.911; #3 -0.873

Hits, of those listed so far:
G2 robust z-score, by gene and reagent
SLC2A10: #3 6.07 (active)
FANCD2: #2 5.78 (active)
